Measurements published in PubChem BioAssay AID1671190 (National Center for Advancing Translational Sciences (NCATS), 2021).
Among all 580,000 compounds or so, about 6,100 (1.1%) were called active. This list was built around the results that the source calls inconclusive (neither active nor inactive); the mix of calls is not that of the screen. The call rests on the fitted dose curve; in most records, active means well fitted inhibition curve with a large enough effect; inconclusive means small, poorly fitted or top-dose-only effect, or another doubt; inactive means no such curve, though single readings can be large or run the other way. Potencies beside an inconclusive call are fits to weak or partial responses and may not hold up.

Chains of the proteins cited; added tags and fusions are not shown. Lines headed by an entry give the natural chain unless they say otherwise; changes in a name come on top.
UniProt P18054: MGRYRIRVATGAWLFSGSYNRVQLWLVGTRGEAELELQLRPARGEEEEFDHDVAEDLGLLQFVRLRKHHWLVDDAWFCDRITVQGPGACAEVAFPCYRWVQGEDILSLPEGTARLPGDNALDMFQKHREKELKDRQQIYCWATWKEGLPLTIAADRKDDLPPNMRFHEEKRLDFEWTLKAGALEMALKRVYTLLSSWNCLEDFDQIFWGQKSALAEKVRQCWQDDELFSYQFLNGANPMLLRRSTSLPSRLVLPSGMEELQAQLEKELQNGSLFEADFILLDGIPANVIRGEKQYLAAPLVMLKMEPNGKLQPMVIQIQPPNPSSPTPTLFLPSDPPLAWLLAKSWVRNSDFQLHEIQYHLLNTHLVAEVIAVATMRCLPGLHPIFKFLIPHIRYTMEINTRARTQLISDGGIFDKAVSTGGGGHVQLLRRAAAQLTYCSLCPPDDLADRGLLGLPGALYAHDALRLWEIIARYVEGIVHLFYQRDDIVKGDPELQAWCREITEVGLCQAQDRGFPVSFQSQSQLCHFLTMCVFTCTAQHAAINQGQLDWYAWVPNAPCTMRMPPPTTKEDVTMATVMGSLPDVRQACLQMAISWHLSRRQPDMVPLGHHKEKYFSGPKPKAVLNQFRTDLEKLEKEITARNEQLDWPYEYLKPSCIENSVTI

What follows are compounds tested against Polyunsaturated fatty acid lipoxygenase ALOX12 (Homo sapiens) (UniProt P18054) (assay: Primary qHTS assay for inhibitors of human arachidonate 12S-lipoxygenase (ALOX12): Round 2). Details: purified 12hLO, xylenol orange hydroperoxide absorbance; series mostly up to 108 µM.
Procedure, shortened: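 Purified human 12hLO (150 nM final) in 25 mM Hepes, 0.01% Triton X-100, pH 7.0 was preincubated 15 min at room temperature with compound. Then 40 uM arachidonic acid was added, 30 min. Hydroperoxide was read by Fe-XO absorbance ratio 573/405 nm.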
Potency means the concentration at half of the fitted maximal effect.

SMILES | Potency
CCOc1ccc(NC(=O)CN2CCN(CC(=O)Nc3ccccc3OCC)CC2)cc1 | inconclusive: 224 µM [inhibitor, partial curve, poor fit]
CC(C)(C)c1cc(C(=O)NNS(=O)(=O)c2ccccc2)n[nH]1 | inconclusive: 35.5 µM [inhibitor, single point]
O=C(NCc1ccccc1)c1ccc(CS(=O)Cc2cccc(Cl)c2)o1 (stereo not given) | inactive
O=C(O)C(c1c[nH]c2ccccc12)N1CCN(c2cccc(Cl)c2)CC1 (stereo not given) | inconclusive: 89.1 µM [inhibitor, partial curve, poor fit]
NC(=S)N/N=C/c1ccc(-c2ccc([N+](=O)[O-])cc2)o1 | active: 31.6 µM
Cc1ccc(NC(=S)Nc2ccc(C(C)C)cc2)cc1S(=O)(=O)N1CCCCCC1 | inconclusive: 31.6 µM [inhibitor, partial curve, poor fit]
O=C(N[C@H]1C[C@@H](CO)N(CCc2ccccc2)C1)c1cccnc1 | inconclusive: 14.1 µM [inhibitor, full curve]
COc1ccc(NC(=O)c2ncoc2-c2cccc(C)c2)c(OC)c1 | inconclusive: 0.501 µM [inhibitor, single point]
CCCCCC(=O)Nc1ccc(N2CCOCC2)c(S(=O)(=O)Nc2ccc(OC)cc2)c1 | inconclusive: 63.1 µM [inhibitor, partial curve, poor fit]
CCn1c(N)c(-c2csc(Nc3cc(C)ccc3C)n2)c(=O)[nH]c1=O | inconclusive: 44.7 µM [inhibitor, partial curve, poor fit]
COc1ccccc1N1CCN(Cc2cc3c(cc2Br)OCCO3)CC1 | inconclusive: 126 µM [inhibitor, single point]
CCCCSc1nc2sc3c(c2c(=O)n1-c1ccc(C)cc1)CCN(C)C3 | inconclusive: 35.5 µM [inhibitor, partial curve, poor fit]
Cc1c(N)cccc1-c1nc2cc(C(C)C)ccc2o1 | inconclusive: 79.4 µM [inhibitor, partial curve, poor fit]
CCOC(=O)c1ccc(NC(=O)COC(=O)c2cn(CC)c3nc(C)ccc3c2=O)cc1 | inconclusive: 50.1 µM [inhibitor, partial curve]
CCOC(=O)C(C#N)=C1CCC=C(C)C1 | inactive
Cc1ccc(NC(=O)CSc2nc(CN(C)C)nc3ccccc23)c(C)c1 | inconclusive: 89.1 µM [inhibitor, partial curve, poor fit]
COc1cccc(-c2cc(C(=O)N3CCC4(CC3)CC(OC)CCO4)[nH]n2)c1 (stereo not given) | inconclusive: 50.1 µM [inhibitor, partial curve, poor fit]
CCOC(=O)C1=C(C)NC(=S)NC1c1ccco1 (stereo not given) | inconclusive: 141 µM [inhibitor, single point]
C=CCNC(=S)N/N=C(\C)c1ccccn1 | inconclusive: 79.4 µM [inhibitor, partial curve, poor fit]
FC1(F)CN[C@H](c2nc(C3CC3)no2)C1 | inconclusive: 2.82 µM [inhibitor, full curve, poor fit]
CCN(Cc1ccc2c(c1)OCCO2)C(=O)CN1C(=O)NC2(CCCCC2)C1=O | inactive
Nc1nc2c(c(=O)[nH]1)C(c1cccc3ccccc13)C1=C(N2)c2ccccc2C1=O (stereo not given) | inconclusive: 50.1 µM [inhibitor, partial curve, poor fit]

SMILES | Potency
O=C(NC1CCCCC1)O[C@@H]1CO[C@H]2[C@@H]1OC[C@@H]2n1nnnc1SCc1ccco1 | active: 3.55 µM
C=CCn1c(O)c(N=Nc2ccccc2)c2ccccc21 | inconclusive: 20 µM [inhibitor, full curve, poor fit]
CCN(C(C)=O)c1nc(CSc2nnc(NC(C)C)s2)cs1 | inactive
CC(C)Cn1c(-c2ccc(Br)o2)n[nH]c1=S | inconclusive: 50.1 µM [inhibitor, partial curve, poor fit]
CCOc1ccc(N2C(=O)CC(/C=C3/N(C)c4ccccc4C3(C)C)C2=O)cc1 (stereo not given) | inactive
CC(C)C(=O)Nc1cccc(NC2=NS(=O)(=O)c3ccccc32)c1 | inconclusive: 63.1 µM [inhibitor, partial curve, poor fit]
Cc1cccc(C(=O)Nc2onc(C)c2C#N)c1 | inactive
CCc1ccc(C2=CC(c3cccc(Br)c3)n3nnnc3N2)cc1 (stereo not given) | inconclusive: 50.1 µM [inhibitor, partial curve, poor fit]
Cc1c(NC2=C(Cl)C(=O)N(c3ccccc3)C2=O)c(=O)n(-c2ccccc2)n1C | inactive
Cc1ccc2c(c1)c(=O)c(C(=O)c1ccncc1)cn2CC(=O)Nc1ccccc1Cl | inconclusive: 141 µM [inhibitor, single point]
COCCn1nnnc1C1CC2(CCOCC2)C(=O)N1Cc1cccc(OC)c1 (stereo not given) | inactive
CCC(c1nnnn1CCc1ccccc1)N(Cc1ccco1)Cc1cc2c(C)ccc(C)c2[nH]c1=O (stereo not given) | inconclusive: 126 µM [inhibitor, single point]
CCCCNC(=O)c1onc(CSc2cccc(Cl)c2)c1C(=O)O | inconclusive: 44.7 µM [inhibitor, partial curve, poor fit]
CCCCCCCCN1C(=O)[C@@H](CC(=O)N2CCCC2)C[C@@]2(C(=O)OC)C1=C[C@H](C1CCCC1)O[C@@H]2C | inconclusive: 50.1 µM [inhibitor, partial curve, poor fit]
COc1ccc(CN2CCN(Cc3ccccc3F)CC2)c(OC)c1 | inconclusive: 3.16 µM [inhibitor, full curve, poor fit]
Cc1ccccc1C(=O)N1CCC(C(=O)Nc2ccccc2N2CCCC2)CC1 | inactive
COc1cc2oc(=O)cc(CN(Cc3ccccc3)Cc3ccccc3)c2cc1Cl | inconclusive: 112 µM [inhibitor, single point]
O=C(Nc1cccc(S(=O)(=O)N2CCCC2)c1)c1cc(=O)[nH]c2ccccc12 | inactive
CC1CCCc2c1nc1sc3c(c1c2-c1cccc(F)c1)CCCC3 (stereo not given) | inactive
Cc1ccc(C2=NN(S(C)(=O)=O)C(c3ccc4nccnc4c3)C2)cc1 (stereo not given) | inconclusive: 50.1 µM [inhibitor, partial curve, poor fit]
Cc1cccc(NC(=O)CSc2nc3ccccc3c(=O)n2CCn2cc(Cl)cn2)c1C | inconclusive: 44.7 µM [inhibitor, partial curve, poor fit]
COc1ccc(-c2cc3c(=O)n(CC(=O)Nc4ccc(C(C)=O)cc4)ncn3n2)cc1 | inactive

At a glance, some entries already given:
SMILES | Potency
O=C(NC1CCCCC1)O[C@@H]1CO[C@H]2[C@@H]1OC[C@@H]2n1nnnc1SCc1ccco1 | active: 3.55 µM
C=CCn1c(O)c(N=Nc2ccccc2)c2ccccc21 | inconclusive: 20 µM [inhibitor, full curve, poor fit]
CCN(C(C)=O)c1nc(CSc2nnc(NC(C)C)s2)cs1 | inactive
CC(C)Cn1c(-c2ccc(Br)o2)n[nH]c1=S | inconclusive: 50.1 µM [inhibitor, partial curve, poor fit]
CCOc1ccc(N2C(=O)CC(/C=C3/N(C)c4ccccc4C3(C)C)C2=O)cc1 (stereo not given) | inactive
CC(C)C(=O)Nc1cccc(NC2=NS(=O)(=O)c3ccccc32)c1 | inconclusive: 63.1 µM [inhibitor, partial curve, poor fit]
Cc1cccc(C(=O)Nc2onc(C)c2C#N)c1 | inactive
CCc1ccc(C2=CC(c3cccc(Br)c3)n3nnnc3N2)cc1 (stereo not given) | inconclusive: 50.1 µM [inhibitor, partial curve, poor fit]
Cc1c(NC2=C(Cl)C(=O)N(c3ccccc3)C2=O)c(=O)n(-c2ccccc2)n1C | inactive
Cc1ccc2c(c1)c(=O)c(C(=O)c1ccncc1)cn2CC(=O)Nc1ccccc1Cl | inconclusive: 141 µM [inhibitor, single point]
COCCn1nnnc1C1CC2(CCOCC2)C(=O)N1Cc1cccc(OC)c1 (stereo not given) | inactive
CCC(c1nnnn1CCc1ccccc1)N(Cc1ccco1)Cc1cc2c(C)ccc(C)c2[nH]c1=O (stereo not given) | inconclusive: 126 µM [inhibitor, single point]
CCCCNC(=O)c1onc(CSc2cccc(Cl)c2)c1C(=O)O | inconclusive: 44.7 µM [inhibitor, partial curve, poor fit]

The listing continues:

SMILES | Potency
COc1ccc(NC(=O)CSc2nc(O)c(C/C=C/c3ccccc3)c(=O)[nH]2)cc1 | inconclusive: 56.2 µM [inhibitor, partial curve, poor fit]
CC(C)CC(c1nnnn1C(C)(C)C)N1CCN(Cc2ccccc2)CC1 (stereo not given) | active: 10 µM
O=C(CCCc1ccccc1)NC1CC1 | inconclusive: 56.2 µM [inhibitor, partial curve, poor fit]
COc1ccc(CCNC(=O)C(=O)NCC2OCCN2S(=O)(=O)c2ccc(Cl)cc2)cc1OC (stereo not given) | inactive
Cc1ccc(N2NC3(CCCCC3)NC2=S)cc1C | inconclusive: 5.01 µM [inhibitor, full curve, poor fit]
O=c1c(-c2ccc(Cl)cc2)nc2cnc(N3CCOCC3)nc2n1Cc1ccc(F)cc1 | inconclusive: 126 µM [inhibitor, single point]
Cn1c(C23CC4CC(CC(C4)C2)C3)n[nH]c1=S | inconclusive: 56.2 µM [inhibitor, partial curve, poor fit]
COc1ccc(CC2(CO)CCN(C(C)COc3ccccc3)CC2)cc1 (stereo not given) | inconclusive: 35.5 µM [inhibitor, partial curve, poor fit]
CCc1nc2ccccc2c(NC(=O)CN(CC)CC)c1C | inconclusive: 0.891 µM [inhibitor, full curve, poor fit]
CCc1ccc(NC(=O)CCC2CCCCC2)cc1 | inactive
c1ccc(NC2C(c3ccccc3)=Nc3ccccc3-n3nnnc32)cc1 (stereo not given) | inconclusive: 56.2 µM [inhibitor, partial curve, poor fit]
Fc1ccc(/C=N/NC(=S)Nc2ccc(Cl)cc2)cc1F | inactive
CC(=O)N1CCN(C(=S)NC(=O)c2ccc(S(=O)(=O)N3CCOCC3)cc2)CC1 | inconclusive: 5.62 µM [inhibitor, full curve, poor fit]
COCC(=O)N1CCC[C@@]2(CCN(Cc3nccs3)C2)C1 | inconclusive: 35.5 µM [inhibitor, single point]
COc1ccc(CC(=O)OCC(=O)Nc2ccccc2OC(F)F)cc1 | inactive
COc1ccc(OC)c(C2C(C(=O)c3ccco3)=C(O)C(=O)N2CC2CCCO2)c1 (stereo not given) | inconclusive: 6.31 µM [inhibitor, full curve, poor fit]
Cc1c(N2C(=O)/C(=C\c3ccc(N(C)C)cc3)N(C)C2=S)c(=O)n(-c2ccccc2)n1C | inconclusive: 100 µM [inhibitor, partial curve, poor fit]
COc1ccc2cc(C(=O)NCc3ccc4c(c3)CCN4C(=O)c3ccc(C)cc3)[nH]c2c1 | inconclusive: 141 µM [inhibitor, partial curve, poor fit]
N#C/C(=C\c1c(F)cccc1Cl)C(=O)NC1CC1 | inconclusive: 39.8 µM [inhibitor, partial curve, poor fit]
Fc1ccccc1CNc1ncnc2sccc12 | inactive
COc1ccc(C=O)cc1COc1ccc2c(c1)OCO2 | inconclusive: 56.2 µM [inhibitor, partial curve, poor fit]
